Here are results for 1 molecule from patent publication US20050169909A1.

No constants are given. Whether binding was seen depends on the method and setting. A result given as binding can be weak or reduced; the word gives no strength.

The assay deals with human IgE Fc peptide that carried mutations in epitope 'A' (human). As to the kind of experiment: Western blot of in vitro translated V5-tagged IgE Fc peptides (Example 12 B) [panel anti-IgE 5I]. (Immunoblotting shows a protein as a band on a membrane.)

B1: Anti-IgE CL-5I (antibody, V domains shown)
VH: QVQLVQSGAEVMKPGSSVKVSCKASGYTFSMYWLEWVRQAPGHGLEWMGEIDPGTFETNYNEKFKARVTFTADTSTSTAYMELSSLRSEDTAVYYCARFSHFSGSNYDYFDYWGQGTLVTVSS
VL: EIVMTQSPATLSVSPGERATLSCRASQSIGTNIHWYQQKPGQAPRLLIYYASESISGIPARFSGSGSGTEFTLTISSLQSEDFAVYYCQQSWSWPTTFGGGTKVEIKT
On to B1, for which the binding result was “binds”.
